Publication PMC10235086

T1: ProteinA-Rio1 (S. cerevisiae) (UniProt Q12196)
T1 sequence: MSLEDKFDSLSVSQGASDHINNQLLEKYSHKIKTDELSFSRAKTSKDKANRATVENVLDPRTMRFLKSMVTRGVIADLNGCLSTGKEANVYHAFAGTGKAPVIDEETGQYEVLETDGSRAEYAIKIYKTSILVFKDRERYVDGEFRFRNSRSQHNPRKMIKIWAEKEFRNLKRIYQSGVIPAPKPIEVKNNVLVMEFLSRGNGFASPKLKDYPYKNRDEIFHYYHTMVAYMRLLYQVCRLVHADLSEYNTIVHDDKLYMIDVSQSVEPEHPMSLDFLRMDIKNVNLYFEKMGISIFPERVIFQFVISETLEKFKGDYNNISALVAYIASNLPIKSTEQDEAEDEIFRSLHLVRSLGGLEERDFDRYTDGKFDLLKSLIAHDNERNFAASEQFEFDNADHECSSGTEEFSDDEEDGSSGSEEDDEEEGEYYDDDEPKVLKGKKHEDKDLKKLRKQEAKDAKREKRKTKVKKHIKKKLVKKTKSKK

B1: Spt6 (protein, UniProt P23615 1-1451)
chain: MEETGDSKLVPRDEEEIVNDNDETKAPSEEEEGEDVFDSSEEDEDIDEDEDEARKVQEGFIVNDDDENEDPGTSISKKRRKHKRREREEDDRLSEDDLDLLMENAGVERTKASSSSGKFKRLKRVGDEGNAAESESDNVAASRQDSTSKLEDFFSEDEEEEESGLRNGRNNEYGRDEEDHENRNRTADKGGILDELDDFIEDDEFSDEDDETRQRRIQEKKLLREQSIKQPTQITGLSSDKIDEMYDIFGDGHDYDWALEIENEELENGNDNNEAEEEEIDEETGAIKSTKKKISLQDIYDLEDLKKNLMTEGDMKIRKTDIPERYQELRAGITDYGNMSSEDQELERNWIAEKISVDKNFDANYDLTEFKEAIGNAIKFITKENLEVPFIYAYRRNYISSREKDGFLLTEDDLWDIVSLDIEFHSLVNKKDYVQRFYAELHIDDPIVTEYFKNQNTASIAELNSLQDIYDYLEFKYANEINEMFINHTGKTGKKHLKNSSYEKFKASPLYQAVSDIGISAEDVGENISSQHQIHPPVDHPSSKPVEVIESILNANSGDLQVFTSNTKLAIDTVQKYYSLELSKNTKIREKVRSDFSKYYLADVVLTAKGKKEIQKGSLYEDIKYAINRTPMHFRRDPDVFLKMVEAESLNLLSVKLHMSSQAQYIEHLFQIALETTNTSDIAIEWNNFRKLAFNQAMDKIFQDISQEVKDNLTKNCQKLVAKTVRHKFMTKLDQAPFIPNVRDPKIPKILSLTCGQGRFGADAIIAVYVNRKGDFIRDYKIVDNPFDKTNPEKFEDTLDNIIQSCQPNAIGINGPNPKTQKFYKRLQEVLHKKQIVDSRGHTIPIIYVEDEVAIRYQNSERAAQEFPNKPPLVKYCIALARYMHSPLLEYANLTSEEVRSLSIHPHQNLLSSEQLSWALETAFVDIVNLVSVEVNKATDNNYYASALKYISGFGKRKAIDFLQSLQRLNEPLLARQQLITHNILHKTIFMNSAGFLYISWNEKRQKYEDLEHDQLDSTRIHPEDYHLATKVAADALEYDPDTIAEKEEQGTMSEFIELLREDPDRRAKLESLNLESYAEELEKNTGLRKLNNLNTIVLELLDGFEELRNDFHPLQGDEIFQSLTGESEKTFFKGSIIPVRVERFWHNDIICTTNSEVECVVNAQRHAGAQLRRPANEIYEIGKTYPAKVIYIDYANITAEVSLLDHDVKQQYVPISYSKDPSIWDLKQELEDAEEERKLMMAEARAKRTHRVINHPYYFPFNGRQAEDYLRSKERGEFVIRQSSRGDDHLVITWKLDKDLFQHIDIQELEKENPLALGKVLIVDNQKYNDLDQIIVEYLQNKVRLLNEMTSSEKFKSGTKKDVVKFIEDYSRVNPNKSVYYFSLNHDNPGWFYLMFKINANSKLYTWNVKLTNTGYFLVNYNYPSVIQLCNGFKTLLKSNSSKNRMNNYR
B2: Pat1 (protein, UniProt P25644 1-796)
chain: MSFFGLENSGNARDGPLDFEESYKGYGEHELEENDYLNDETFGDNVQVGTDFDFGNPHSSGSSGNAIGGNGVGATARSYVAATAEGISGPRTDGTAAAGPLDLKPMESLWSTAPPPAMAPSPQSTMAPAPAPQQMAPLQPILSMQDLERQQRQMQQQFMNFHAMGHPQGLPQGPPQQQFPMQPASGQPGPSQFAPPPPPPGVNVNMNQMPMGPVQVPVQASPSPIGMSNTPSPGPVVGATKMPLQSGRRSKRDLSPEEQRRLQIRHAKVEKILKYSGLMTPRDKDFITRYQLSQIVTEDPYNEDFYFQVYKIIQRGGITSESNKGLIARAYLEHSGHRLGGRYKRTDIALQRMQSQVEKAVTVAKERPSKLKDQQAAAGNSSQDNKQANTVLGKISSTLNSKNPRRQLQIPRQQPSDPDALKDVTDSLTNVDLASSGSSSTGSSAAAVASKQRRRSSYAFNNGNGATNLNKSGGKKFILELIETVYEEILDLEANLRNGQQTDSTAMWEALHIDDSSYDVNPFISMLSFDKGIKIMPRIFNFLDKQQKLKILQKIFNELSHLQIIILSSYKTTPKPTLTQLKKVDLFQMIILKIIVSFLSNNSNFIEIMGLLLQLIRNNNVSFLTTSKIGLNLITILISRAALIKQDSSRSNILSSPEISTWNEIYDKLFTSLESKIQLIFPPREYNDHIMRLQNDKFMDEAYIWQFLASLALSGKLNHQRIIIDEVRDEIFATINEAETLQKKEKELSVLPQRSQELDTELKSIIYNKEKLYQDLNLFLNVMGLVYRDGEISELK
B3: Ycg1 (protein, UniProt Q06680 1-1035)
chain: MQDPDGIDINTKIFNSVAEVFQKAQGSYAGHRKHIAVLKKIQSKAVEQGYEDAFNFWFDKLVTKILPLKKNEIIGDRIVKLVAAFIASLERELILAKKQNYKLTNDEEGIFSRFVDQFIRHVLRGVESPDKNVRFRVLQLLAVIMDNIGEIDESLFNLLILSLNKRIYDREPTVRIQAVFCLTKFQDEEQTEHLTELSDNEENFEATRTLVASIQNDPSAEVRRAAMLNLINDNNTRPYILERARDVNIVNRRLVYSRILKSMGRKCFDDIEPHIFDQLIEWGLEDRELSVRNACKRLIAHDWLNALDGDLIELLEKLDVSRSSVCVKAIEALFQSRPDILSKIKFPESIWKDFTVEIAFLFRAIYLYCLDNNITEMLEENFPEASKLSEHLNHYILLRYHHNDISNDSQSHFDYNTLEFIIEQLSIAAERYDYSDEVGRRSMLTVVRNMLALTTLSEPLIKIGIRVMKSLSINEKDFVTMAIEIINDIRDDDIEKQEQEEKIKSKKINRRNETSVDEEDENGTHNDEVNEDEEDDNISSFHSAVENLVQGNGNVSESDIINNLPPEKEASSATIVLCLTRSSYMLELVNTPLTENILIASLMDTLITPAVRNTAPNIRELGVKNLGLCCLLDVKLAIDNMYILGMCVSKGNASLKYIALQVIVDIFSVHGNTVVDGEGKVDSISLHKIFYKVLKNNGLPECQVIAAEGLCKLFLADVFTDDDLFETLVLSYFSPINSSNEALVQAFAFCIPVYCFSHPAHQQRMSRTAADILLRLCVLWDDLQSSVIPEVDREAMLKPNIIFQQLLFWTDPRNLVNQTGSTKKDTVQLTFLIDVLKIYAQIEKKEIKKMIITNINAIFLSSEQDYSTLKELLEYSDDIAENDNLDNVSKNALDKLRNNLNSLIEEINERSETQTKDENNTANDQYSSILGNSFNKSSNDTIEHAADITDGNNTELTKTTVNISAVDNTTEQSNSRKRTRSEAEQIDTSKNLENMSIQDTSTVAKNVSFVLPDEKSDAMSIDEEDKDSESFSEVC
B4: Rtt106 (protein, UniProt P40161 1-455)
chain: MSKLFLDELPESLSRKIGTVVRVLPSSLEIFEELYKYALNENSNDRSGRHKKPRIDVSSDLLKTDEISETNTIFKLEGVSVLSPLRKKLDLVFYLSNVDGSPVITLLKGNDRELSIYQLNKNIKMASFLPVPEKPNLIYLFMTYTSCEDNKFSEPVVMTLNKENTLNQFKNLGLLDSNVTDFEKCVEYIRKQAILTGFKISNPFVNSTLVDTDAEKINSFHLQCHRGTKEGTLYFLPDHIIFGFKKPILLFDASDIESITYSSITRLTFNASLVTKDGEKYEFSMIDQTEYAKIDDYVKRKQMKDKSMSEELKAKSKSKGQATDGTADQPSILQEATRQMQDEKKAGVFSDDDEENDQNFEAESDLSDGSGQESSDGAEDGEEAEEDDEEDDEEEDKKGQSALNRDNSFASINGQPEQELQYKEFKEPLELEDIPIEIDNDDDEDDEDGSGVEYD

Target: T1, ProteinA-Rio1 (S. cerevisiae)
Test: affinity purification with mass spectrometry; ProteinA-Rio1 expressed from PGAL1-10 (2% galactose, 2 h) in pep4∆ yeast; cleared lysate (50 mM Tris-Cl pH 7.5, 10% glycerol, 150 mM NaCl, 1 mM DTT, 0.4% NP-40) on rabbit IgG agarose beads overnight at 4 °C; washed with PBS-T; on-bead digestion …; untagged Rio1 as negative control; three independent purifications

binding, binds:
B1, B2, B3, B4

Results are given in words; binding and its absence hold for the method and conditions named. Binding seen in cells or lysates may run through a third protein. These calls come from enrichment with a bait or labelling near it, and not all partners need be listed.
